# Assay results reported in PMC7252619 (PLoS ONE, 2020).
# Assays:
# human CD19+ B cells = experiment: B-cell assay: IgG production of ODN2006-stimulated primary B cells (AlphaLISA); type: cell-based; conditions: 168 h, ODN2006 0.1 μM, 7 days, mean of 4 independent experiments
# [1] = tested on: human PBMCs (responder cells) with RPMI1788 stimulator cells; experiment: Mixed Lymphocyte Reaction (MLR, T cell assay), 3H-thymidine incorporation; type: cell-based; conditions: for IC50: Homo sapiens, RPMI-1788, mean of 4 independent measures, read-out: T-cell efficacy, MLR IC 50 (µM) Mean; for Selectivity Index (SI) MLR/B-cell: ratio of IC50 values
SMILES,IC50 (human CD19+ B cells) [nM],IC50 [1] [µM],Selectivity Index (SI) MLR/B-cell [1]
"CN1CCN(CCCN2c3ccccc3Sc3ccc(Cl)cc32)CC1 [Prochlorperazine, reference compound]",6120,4.73,0.77
C[C@@H]1CCN(C(=O)CC#N)C[C@@H]1N(C)c1ncnc2[nH]ccc12 [Tofacitinib],432,0.264,0.61
